PMC7862700
The entries are a selection whose mix differs from that of the whole data set. At the low end of the ranking the order means little.

Amino acid sequences for entries named in this document (tags omitted). A change or cut given only in a name is not applied to a line headed by its entry.
UniProt O43186: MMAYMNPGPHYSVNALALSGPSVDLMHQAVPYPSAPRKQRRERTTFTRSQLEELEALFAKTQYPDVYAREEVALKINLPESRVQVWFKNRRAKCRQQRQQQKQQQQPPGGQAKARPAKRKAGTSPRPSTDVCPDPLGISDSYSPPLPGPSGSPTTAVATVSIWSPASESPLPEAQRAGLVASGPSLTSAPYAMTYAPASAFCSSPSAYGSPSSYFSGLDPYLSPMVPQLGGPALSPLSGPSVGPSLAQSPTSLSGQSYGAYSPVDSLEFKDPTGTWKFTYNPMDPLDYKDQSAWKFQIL

Assays:
Assay in all cases: DAPPL (digital affinity profiling via proximity ligation, sequencing)
Conditions in all cases: 10 mM Tris-HCl pH 7.5, 50 mM NaCl, 1 mM DTT, 4% glycerol, room temperature, 30 min; GST-TFs on glutathione beads, 16-mer random dsDNA library, 0.1% …; high values mean tight binding; double strand, one strand shown; scale: fold enrichment (6-mer frequency, TF over GST control)
FEV = biological target: T1, FEV (UniProt Q99581)
T1 sequence: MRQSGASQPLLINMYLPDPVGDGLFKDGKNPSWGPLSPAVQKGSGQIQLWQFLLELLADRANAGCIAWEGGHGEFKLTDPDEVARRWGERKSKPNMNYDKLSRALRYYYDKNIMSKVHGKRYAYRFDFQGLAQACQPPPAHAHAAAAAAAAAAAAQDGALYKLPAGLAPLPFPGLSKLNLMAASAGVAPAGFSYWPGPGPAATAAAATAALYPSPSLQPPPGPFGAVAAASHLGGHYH

CRX = CRX (UniProt O43186)
ELF5 = biological target: T2, ELF5 (UniProt Q9UKW6-2)
T2 sequence: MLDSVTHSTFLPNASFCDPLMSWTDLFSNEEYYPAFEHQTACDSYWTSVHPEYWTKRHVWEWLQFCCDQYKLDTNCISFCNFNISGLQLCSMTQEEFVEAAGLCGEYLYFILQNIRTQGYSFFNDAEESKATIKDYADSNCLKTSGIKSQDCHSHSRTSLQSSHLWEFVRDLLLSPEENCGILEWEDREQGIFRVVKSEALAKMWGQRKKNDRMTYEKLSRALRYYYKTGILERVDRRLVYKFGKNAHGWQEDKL

Sequence	binding signal (FEV)	binding signal (CRX)	binding signal (ELF5)
GCATAG	0.803	0.731	0.788
ATGAGT	0.617	0.662	0.678
GACAGC	0.743	0.57	0.763
CAAGAG	0.733	0.722	0.73
CGAGCG	0.919	0.729	0.838
AGTGAG	0.257	0.214	0.256
ACGAGA	0.635	0.736	0.645
GATTGG	0.79	1.01	0.841
TGTGTC	0.691	0.556	0.747
CACAGG	0.938	0.641	0.897
GTGAGG	0.245	0.222	0.255
CGTGGA	0.537	0.562	0.554
GGCGCG	0.632	0.491	0.576
TACGTG	0.656	0.646	0.69
ACCGCG	0.81	0.675	0.774
ATGTCG	0.576	0.486	0.674
ACAGTG	0.485	0.403	0.469
CTGGAG	0.627	0.639	0.648
GAGTTT	0.551	0.555	0.612
AACCAG	0.823	0.71	0.856
CACGGG	0.8	0.593	0.815
CAGTGT	0.638	0.587	0.626
TGAGGA	0.625	0.584	0.88
TGTGAG	0.333	0.314	0.329
GTTCGG	0.636	0.508	0.631
GGTAGC	0.795	0.582	0.834
CGCATC	0.936	0.659	0.894
CCAGGA	0.61	0.448	0.868
CCAGTT	0.6	0.499	0.609
TAGGGG	0.835	0.976	0.726

An excerpt from above, reduced to binding signal (FEV) and binding signal (CRX):
Sequence	binding signal (FEV)	binding signal (CRX)
TGTGAG	0.333	0.314
GTTCGG	0.636	0.508
